The values that follow come from the supplement of paper PMC10849652.

Protein sequences, listed by entry. Tags and fused reporters are not part of them. Lines headed by an entry give the natural chain unless they say otherwise; changes in a name come on top.
UniProt Q92698: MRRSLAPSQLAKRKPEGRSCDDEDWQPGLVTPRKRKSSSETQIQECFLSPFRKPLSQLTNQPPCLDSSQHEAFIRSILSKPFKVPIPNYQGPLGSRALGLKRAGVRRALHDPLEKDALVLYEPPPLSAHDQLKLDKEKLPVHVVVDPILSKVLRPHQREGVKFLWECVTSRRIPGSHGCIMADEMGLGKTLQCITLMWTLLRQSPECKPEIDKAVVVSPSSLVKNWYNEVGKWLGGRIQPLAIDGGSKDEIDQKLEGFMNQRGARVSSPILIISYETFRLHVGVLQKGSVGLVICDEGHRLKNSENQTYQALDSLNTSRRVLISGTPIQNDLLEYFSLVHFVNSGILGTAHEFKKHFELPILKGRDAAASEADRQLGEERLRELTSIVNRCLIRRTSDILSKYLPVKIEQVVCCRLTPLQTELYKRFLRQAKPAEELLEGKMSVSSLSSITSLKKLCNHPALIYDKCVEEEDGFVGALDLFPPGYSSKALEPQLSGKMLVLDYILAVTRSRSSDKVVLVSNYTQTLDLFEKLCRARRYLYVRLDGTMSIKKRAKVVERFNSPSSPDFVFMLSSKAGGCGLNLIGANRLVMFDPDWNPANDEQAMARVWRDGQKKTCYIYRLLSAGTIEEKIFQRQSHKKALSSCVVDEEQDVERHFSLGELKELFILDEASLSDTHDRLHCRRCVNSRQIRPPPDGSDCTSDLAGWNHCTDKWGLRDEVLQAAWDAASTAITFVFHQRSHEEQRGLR
UniProt P32322: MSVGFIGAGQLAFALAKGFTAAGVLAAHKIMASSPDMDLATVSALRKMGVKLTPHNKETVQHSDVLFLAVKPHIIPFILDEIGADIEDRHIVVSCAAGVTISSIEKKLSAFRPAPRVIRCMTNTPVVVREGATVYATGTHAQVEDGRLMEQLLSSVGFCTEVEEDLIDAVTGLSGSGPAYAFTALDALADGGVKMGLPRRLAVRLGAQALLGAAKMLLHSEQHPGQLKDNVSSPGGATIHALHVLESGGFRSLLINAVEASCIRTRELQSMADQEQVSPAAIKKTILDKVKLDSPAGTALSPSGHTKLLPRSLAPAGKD
UniProt Q99638: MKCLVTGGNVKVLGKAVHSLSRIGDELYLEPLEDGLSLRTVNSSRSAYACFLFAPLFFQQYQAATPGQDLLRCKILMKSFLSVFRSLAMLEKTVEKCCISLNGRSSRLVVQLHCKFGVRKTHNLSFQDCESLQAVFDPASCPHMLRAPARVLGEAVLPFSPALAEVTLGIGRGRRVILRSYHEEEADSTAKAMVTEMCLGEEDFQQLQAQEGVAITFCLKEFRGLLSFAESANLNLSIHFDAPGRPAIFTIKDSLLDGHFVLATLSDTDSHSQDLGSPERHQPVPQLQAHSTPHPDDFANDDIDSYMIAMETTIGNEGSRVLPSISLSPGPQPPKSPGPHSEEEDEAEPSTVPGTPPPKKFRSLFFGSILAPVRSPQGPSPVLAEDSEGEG
UniProt Q86X27: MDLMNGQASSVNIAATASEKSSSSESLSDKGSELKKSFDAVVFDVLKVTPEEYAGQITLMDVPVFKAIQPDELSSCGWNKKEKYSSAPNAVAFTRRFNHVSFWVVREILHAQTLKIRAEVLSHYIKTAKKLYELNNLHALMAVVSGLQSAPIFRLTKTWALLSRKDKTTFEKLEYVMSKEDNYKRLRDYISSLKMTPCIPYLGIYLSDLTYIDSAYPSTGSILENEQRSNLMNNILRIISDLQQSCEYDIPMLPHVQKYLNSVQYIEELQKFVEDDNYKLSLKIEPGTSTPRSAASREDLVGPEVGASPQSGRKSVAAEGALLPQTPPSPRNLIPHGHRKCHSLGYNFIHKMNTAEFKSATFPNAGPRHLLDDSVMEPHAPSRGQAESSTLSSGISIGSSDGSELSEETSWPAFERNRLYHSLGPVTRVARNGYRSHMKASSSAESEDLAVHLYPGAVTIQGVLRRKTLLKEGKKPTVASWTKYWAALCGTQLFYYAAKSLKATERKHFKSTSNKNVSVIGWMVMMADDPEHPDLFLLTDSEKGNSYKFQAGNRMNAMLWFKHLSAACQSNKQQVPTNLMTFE
UniProt Q9NR77: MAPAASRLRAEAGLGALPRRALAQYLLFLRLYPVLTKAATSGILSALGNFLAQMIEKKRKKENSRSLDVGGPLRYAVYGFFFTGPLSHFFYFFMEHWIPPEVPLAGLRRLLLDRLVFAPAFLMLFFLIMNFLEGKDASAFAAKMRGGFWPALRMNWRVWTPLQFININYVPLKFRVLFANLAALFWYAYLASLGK
UniProt P51159: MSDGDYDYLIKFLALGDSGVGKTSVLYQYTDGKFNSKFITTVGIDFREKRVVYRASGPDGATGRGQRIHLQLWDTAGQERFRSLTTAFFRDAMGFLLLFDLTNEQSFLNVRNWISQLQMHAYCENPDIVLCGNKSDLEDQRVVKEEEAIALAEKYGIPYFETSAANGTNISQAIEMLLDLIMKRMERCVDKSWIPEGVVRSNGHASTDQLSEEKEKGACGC
UniProt Q86YS6: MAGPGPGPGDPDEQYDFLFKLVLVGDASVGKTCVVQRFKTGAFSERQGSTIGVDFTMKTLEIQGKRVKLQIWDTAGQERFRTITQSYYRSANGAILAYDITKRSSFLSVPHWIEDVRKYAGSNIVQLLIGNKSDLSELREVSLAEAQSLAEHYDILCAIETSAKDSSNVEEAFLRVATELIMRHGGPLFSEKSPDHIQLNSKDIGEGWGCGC

Assay in all cases: log2 fold change, soluble protein after heating vs DMSO (PISA); higher = thermal stabilisation; K562 lysate, 10 uM; active = over 0.2 and 3.5 SD of the protein, either way, in both replicates (recomputed)
Compound in one test: CN1CC[C@H](c2c(O)cc(O)c3c(=O)cc(-c4ccccc4Cl)oc23)[C@H](O)C1 [alvocidib]
Summed up:
(§1)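 Quantification was by TMTpro 16plex LC-MS/MS with equalised channel sums, applied to the supernatant after 21,000xg for 90 min. Samples were crude K562 extract at 1 mg/mL protein in PBS pH 7.4 with 1 mM MgCl2, treated with 10 μM compound for 30 min, heated for 3 min across 48°C-58°C, pooled and brought to 0.5% NP-40 at 4°C. Values are log-two fold changes in thermal stability relative to solvent controls, from duplicates.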

Compound in a further test: CN1CCc2c(c3ccccc3n2Cc2ccc(C(=O)NO)cc2)C1 [Tubastatin A]
In short, it runs like this: as §1

Compound in test [1]: CNC(=O)C1=CC=CC=C1NC2=NC(=NC=C2Cl)NC3=C(C=C(C=C3)N4CCOCC4)OC
Summed up: as §1

Compound in test [2]: CNc1nc(-c2ccc3c(N)n[nH]c3c2)cc(N2C[C@@H](C(=O)NC3CCCCC3)CC[C@H]2C)n1
In short, it runs like this:
as §1

Compound in a further test: COc1cc(Nc2ncc3c(n2)-c2ccc(Cl)cc2C(c2c(F)cccc2OC)=NC3)ccc1C(=O)O [alisertib]
In short, it runs like this: as §1

Compound in test [3]: COc1cc2nc(-c3cc(F)ccc3O)nc(N[C@@H]3CNC[C@H]3C(C)(C)O)c2cc1OC
In short, it runs like this: as §1

Compound in a further test: COc1cc2ncnc(Nc3ccc(F)c(Cl)c3)c2cc1OCCCN1CCOCC1 [gefitinib]
In short, it runs like this: as §1

Compound in a further test: CS(=O)(=O)CCNCc1ccc(-c2ccc3ncnc(Nc4ccc(OCc5cccc(F)c5)c(Cl)c4)c3c2)o1 [lapatinib]
In short, it runs like this: as §1

Compound in another test: CS(=O)(=O)N1CCN(Cc2cc3nc(-c4cccc5[nH]ncc45)nc(N4CCOCC4)c3s2)CC1 [pictilisib]
In short, it runs like this:
as §1

Compound in test [4]: C[C@H](C1=CC=C(C=C1)C(=O)NC2=C3C=CNC3=NC=C2)N
In short, it runs like this:
as §1

Compound in another test: C[C@H](Nc1ncnc2nc[nH]c12)c1cc2cccc(Cl)c2c(=O)n1-c1ccccc1 [duvelisib]
Summed up: as §1

Compound in a further test: Cc1cc(Nc2cc(CN3CCOCC3)c3nc(C)c(Cc4ccc(Cl)cc4F)n3n2)n[nH]1 [gandotinib]
In short, it runs like this:
as §1

Compound in another test: Cc1ccc(NC(=O)c2ccc(CN3CC[C@H](N(C)C)C3)c(C(F)(F)F)c2)cc1Nc1nccc(-c2cncnc2)n1 [bafetinib]
In short, it runs like this: as §1

Compound in test [5]: Cc1cccc(CC(=O)N2CCc3c2ccc(-c2cn(C)c4ncnc(N)c24)c3F)n1
In short, it runs like this: as §1

Compound in another test: CNC(=O)c1ccc(Nc2ncc(C(F)(F)F)c(NCc3nccnc3N(C)S(C)(=O)=O)n2)cc1 [defactinib]
Summed up: as §1

Compound in another test: COC(=O)N[C@@H](C)CNc1nccc(-c2cn(C(C)C)nc2-c2cc(Cl)cc(NS(C)(=O)=O)c2F)n1 [encorafenib]
In short, it runs like this:
as §1

Compound in test [6]: COC(=O)[C@H](CCSC)NC(=O)C1=C(C=C(C=C1)NC[C@H](CS)N)C2=CC=CC=C2
In short, it runs like this:
as §1

Compound in a further test: C[C@@H](Oc1cc(-c2cnn(C3CCNCC3)c2)cnc1N)c1c(Cl)ccc(F)c1Cl [crizotinib]
In short, it runs like this: as §1

Compound in another test: Cc1cc(Nc2cc(N3CCN(C)CC3)nc(Sc3ccc(NC(=O)C4CC4)cc3)n2)n[nH]1 [tozasertib]
Summed up:
as §1

Compound in a further test: Cc1ccc(-n2nc(C(C)(C)C)cc2NC(=O)Nc2ccc(OCCN3CCOCC3)c3ccccc23)cc1 [doramapimod]
Summed up:
as §1

The list shows a part of the results.

Regarding RAD54L (UniProt Q92698), the log2 fold change in the test with alvocidib was inactive: -0.673; with Tubastatin A it was inactive: 0; in [1], inactive: 0.013; in test [2] it was inactive: -0.132; with alisertib, inactive: -0.022; in [3], inactive: -0.041. Moreover, the log2 fold change with gefitinib was inactive: 0; with lapatinib it was inactive: -0.029; with pictilisib, inactive: 0.029; in [4], active: -1.75; with duvelisib, inactive: 0.109; with gandotinib it was inactive: 0.454. For the same target, the log2 fold change in the test with bafetinib was inactive: -0.185; in test [5], inactive: 0.617.
With RAC1 isoform 2 (UniProt P63000), the log2 fold change with alvocidib was inactive: 0.052; with Tubastatin A, inactive: 0.024; in [1] it was inactive: -0.046; with defactinib, inactive: 0.005; in [2], inactive: 0.05; with encorafenib, inactive: -0.052. Besides, the log2 fold change in [6] was inactive: -0.018; with alisertib, inactive: -0.028; in test [3], inactive: 0.027; with gefitinib, inactive: 0.011; with lapatinib, inactive: 0.056; in the test with pictilisib, inactive: -0.01. The log2 fold change with crizotinib was inactive: 0.088; in test [4] it was inactive: 0.19; with duvelisib, inactive: 0.002; in the test with gandotinib, inactive: -0.125; with tozasertib, inactive: 0.01; with doramapimod it was inactive: 0.016. The log2 fold change is inactive: 0.154 with bafetinib and inactive: -0.185 in test [5].
For the target PYCR1 isoform 3 (UniProt P32322), the log2 fold change in the test with alvocidib is inactive: 0.021; in the test with Tubastatin A, inactive: 0.029; in test [1] it was inactive: 0; in test [2], inactive: 0.015; with encorafenib, inactive: -0.033; in [6], inactive: -0.06. Also, the log2 fold change was inactive: -0.001 with alisertib; inactive: 0.01 in [3]; inactive: -0.073 with gefitinib; inactive: -0.025 in the test with lapatinib; inactive: 0.001 with pictilisib; inactive: 0.026 in the test with crizotinib. For the same target, the log2 fold change was inactive: 0.04 in test [4]; inactive: 0.018 with duvelisib; inactive: -0.017 with gandotinib; inactive: -0.004 with tozasertib; inactive: -0.039 with doramapimod; inactive: 0.004 with bafetinib. Further, the log2 fold change in test [5] is inactive: -0.063.
As to RAD9A (UniProt Q99638), the log2 fold change in the test with alvocidib is inactive: -0.083; in the test with Tubastatin A it was inactive: -0.053; in test [1] it was inactive: 0.019; in the test with defactinib it was inactive: 0.004; in test [2], inactive: -0.029; in the test with encorafenib, inactive: -0.018. The log2 fold change is inactive: 0.009 in test [6]; inactive: 0.032 in the test with alisertib; inactive: 0.056 in [3]; inactive: 0.057 with gefitinib; inactive: -0.016 in the test with lapatinib; inactive: -0.002 with pictilisib. The log2 fold change is inactive: 0.03 in the test with crizotinib; inactive: 0.029 in test [4]; inactive: 0.012 in the test with duvelisib; inactive: -0.019 with gandotinib; inactive: 0.043 with tozasertib; inactive: 0.032 with doramapimod. Further, the log2 fold change with bafetinib was inactive: -0.032; in [5], inactive: -0.063.
As to RALGPS2 (UniProt Q86X27), the log2 fold change with alvocidib is inactive: -0.092; in the test with Tubastatin A it was inactive: 0.015; in [1], inactive: 0.026; with defactinib, inactive: -0.015; with encorafenib, inactive: -0.038; in test [6], inactive: 0.038. The log2 fold change in the test with alisertib is inactive: -0.249; with gefitinib, inactive: -0.061; with pictilisib, inactive: 0.072; with crizotinib, inactive: -0.244; in test [4], inactive: -0.118; in the test with gandotinib, inactive: 0.029. Besides, the log2 fold change is inactive: -0.06 with tozasertib, inactive: 0.005 in the test with doramapimod, inactive: 0.006 with bafetinib and inactive: 0.167 in test [5].
PXMP2 (UniProt Q9NR77): the log2 fold change was inactive: -0.067 in the test with alvocidib; inactive: 0.01 with Tubastatin A; inactive: 0.053 in test [1]; inactive: 0.03 in the test with defactinib; inactive: 0.095 in [2]; inactive: 0.03 with encorafenib. Moreover, the log2 fold change in test [6] is inactive: 0.012; in the test with alisertib, inactive: 0.032; in test [3] it was inactive: -0.035; in the test with gefitinib it was inactive: -0.022; in the test with lapatinib, inactive: 0.02; with pictilisib, inactive: -0.063. The log2 fold change is inactive: -0.003 with crizotinib; inactive: -0.058 in test [4]; inactive: 0.016 with duvelisib; inactive: 0.031 with gandotinib; inactive: 0.012 with tozasertib; inactive: 0.017 with doramapimod. In addition, the log2 fold change in the test with bafetinib is inactive: 0.047; in test [5] it was inactive: 0.07.
On to RAB27A (UniProt P51159), for which the log2 fold change is inactive: 0.087 with alvocidib; inactive: -0.083 with Tubastatin A; inactive: 0.047 in [1]; inactive: -0.001 in the test with defactinib; inactive: -0.131 in test [2]; inactive: 0.027 with encorafenib. In addition, the log2 fold change in [6] is inactive: 0.016; with alisertib, inactive: -0.004; in test [3] it was inactive: 0.041; with gefitinib, inactive: 0.068; with lapatinib, inactive: 0.013; with pictilisib it was inactive: -0.008. For the same target, the log2 fold change in the test with crizotinib is inactive: 0.026; in [4], active: 0.563; with duvelisib it was inactive: -0.009; in the test with gandotinib it was inactive: -0.081; in the test with tozasertib it was inactive: 0.024; with doramapimod, inactive: -0.034. Moreover, the log2 fold change with bafetinib was inactive: 0.038; in test [5] it was inactive: -0.054.
For the target RAB43 (UniProt Q86YS6), the log2 fold change with alvocidib was inactive: -0.029; with Tubastatin A, inactive: -0.068; in test [1] it was inactive: 0.038; in [2], inactive: 0.101; with encorafenib, inactive: 0.058; in test [6] it was inactive: -0.141. The log2 fold change is inactive: -0.152 with alisertib; inactive: -0.028 with gefitinib; inactive: -0.028 in the test with pictilisib; inactive: -0.075 in [4]; inactive: -0.164 with duvelisib; inactive: -0.097 with gandotinib. The values for the log2 fold change (with tozasertib; with bafetinib; in test [5]) were inactive: 0.053, inactive: 0.048 and inactive: 0.05, respectively.
